# Measured values taken from the supplement of paper PMC11348887.
# Structures can show the parent of a compound that is named as a salt. Some of the results follow. Most values lie at the level of the controls, where differences are scatter.
# Assays:
# Settings in all cases: 5 µM; treatment: days 7-14 after plating, readout day 21
# [1] = test system: hPSC-derived cortical neurons (WA09); experiment: nucleus area z-score vs screen plate; higher = larger nuclei (more mature)
# [2] = test system: hPSC-derived cortical neurons (WA09); experiment: total neurite length per nucleus (MAP2) z-score; higher = more neurite growth
# [3] = test system: hPSC-derived cortical neurons (WA09); experiment: nucleus roundness z-score vs screen plate; higher = rounder nuclei (more mature)
# [4] = test system: hPSC-derived cortical neurons (WA09); experiment: KCl-induced FOS+/EGR-1+ double-positive nuclei fraction z-score (KCl minus unstimulated); higher = stronger activity-induced IEG response
smiles,measurement,setting,value
O=C(Nc1cc(C(F)(F)F)ccc1N1CCCCC1)c1ccncc1,nucleus area z-score,[1],-0.0663
same,total neurite length per nucleus (z-score),[2],1.51
same,nucleus roundness z-score,[3],0.00641
same,KCl-induced FOS+/EGR-1+ double-positive nuclei fraction z-score,[4],-0.148
COCCOC(=O)C1=C(C)NC(C)=C(C(=O)OC/C=C/c2ccccc2)C1c1cccc([N+](=O)[O-])c1 (centres undefined) [Cilnidipine],nucleus area z-score,[1],-0.973
same,total neurite length per nucleus (z-score),[2],-0.091
same,nucleus roundness z-score,[3],0.252
same,KCl-induced FOS+/EGR-1+ double-positive nuclei fraction z-score,[4],-0.923
COc1cc2c(cc1OC)CN(CCc1ccc(NC(=O)c3cccc4c(=O)c5cccc(OC)c5[nH]c34)cc1)CC2,nucleus area z-score,[1],-12.4
same,total neurite length per nucleus (z-score),[2],-4.64
same,nucleus roundness z-score,[3],-2.01
same,KCl-induced FOS+/EGR-1+ double-positive nuclei fraction z-score,[4],-1.09
CNCc1cc(-c2ccccc2F)n(S(=O)(=O)c2cccnc2)c1,nucleus area z-score,[1],0.71
same,total neurite length per nucleus (z-score),[2],0.641
same,nucleus roundness z-score,[3],-0.353
same,KCl-induced FOS+/EGR-1+ double-positive nuclei fraction z-score,[4],0.0107
CN[C@@H](C)C(=O)N[C@H](C(=O)N1CCC[C@H]1C(=O)Nc1snnc1-c1ccccc1)C1CCCCC1,nucleus area z-score,[1],0.119
same,total neurite length per nucleus (z-score),[2],-0.119
same,nucleus roundness z-score,[3],0.378
same,KCl-induced FOS+/EGR-1+ double-positive nuclei fraction z-score,[4],1.53
CCS(=O)(=O)N1CCC([C@@H](C)n2c(C)c(C(=O)NCc3c(OC)cc(C)[nH]c3=O)c3ccccc32)CC1,nucleus area z-score,[1],0.162
same,total neurite length per nucleus (z-score),[2],0.592
same,nucleus roundness z-score,[3],1.39
same,KCl-induced FOS+/EGR-1+ double-positive nuclei fraction z-score,[4],1.59
CCOC(=O)c1ccc(O)cc1 [Ethylparaben],nucleus area z-score,[1],0.57
same,total neurite length per nucleus (z-score),[2],-1.45
same,nucleus roundness z-score,[3],-1.38
same,KCl-induced FOS+/EGR-1+ double-positive nuclei fraction z-score,[4],-0.183
CNNCc1ccc(C(=O)NC(C)C)cc1 [Procarbazine HCl],nucleus area z-score,[1],0.0434
same,total neurite length per nucleus (z-score),[2],0.748
same,nucleus roundness z-score,[3],0.531
same,KCl-induced FOS+/EGR-1+ double-positive nuclei fraction z-score,[4],0.262
Cc1ncc([N+](=O)[O-])n1CC(O)CCl (centres undefined) [Ornidazole],nucleus area z-score,[1],0.181
same,total neurite length per nucleus (z-score),[2],0.424
same,nucleus roundness z-score,[3],0.159
same,KCl-induced FOS+/EGR-1+ double-positive nuclei fraction z-score,[4],1.33
CSc1ccc2c(c1)N(CCC1CCCCN1C)c1ccccc1S2 (centres undefined) [Thioridazine HCl],nucleus area z-score,[1],-2.6
same,total neurite length per nucleus (z-score),[2],-1.81
same,nucleus roundness z-score,[3],-2.59
same,KCl-induced FOS+/EGR-1+ double-positive nuclei fraction z-score,[4],-1.02
CCOC(=O)C1=C(N)Oc2ccc(Br)cc2C1C(C#N)C(=O)OCC (centres undefined),nucleus area z-score,[1],1.09
same,total neurite length per nucleus (z-score),[2],-0.691
same,nucleus roundness z-score,[3],-1.34
same,KCl-induced FOS+/EGR-1+ double-positive nuclei fraction z-score,[4],-0.925

# 2 successive entries from above:
smiles,measurement,setting,value
CNCc1cc(-c2ccccc2F)n(S(=O)(=O)c2cccnc2)c1,KCl-induced FOS+/EGR-1+ double-positive nuclei fraction z-score,[4],0.0107
CN[C@@H](C)C(=O)N[C@H](C(=O)N1CCC[C@H]1C(=O)Nc1snnc1-c1ccccc1)C1CCCCC1,nucleus area z-score,[1],0.119
